Patent publication US20240076389A1
No constants are given. Whether binding was seen depends on the method and setting. Some binding calls cover weakened binding; strength is not graded here.

target: AXL fragment # 10 (AXL amino acids 26-450, IgL1+IgL2+FN III-1+FN III-2+); assay: yeast surface display of hAXL fragments (Aga2-HA-(hAXL)-MYC), whole yeast cell ELISA, signal normalised to anti-MYC

| Binder | binding |
| --- | --- |
| F107-10G1 (antibody, V domains shown) VH: EVNLVESGGGVVKPGASLKLSCEASGFTFSNYGMSWVRQTSDKRLEWVASISGGGGRTYYLDNVKGRFIISRENAKNTLYLQMSSLKSEDTALFYCARGARASYFAMDYWGQGSSVTVSS VL: VIVMTQSHKFMSTSVGDRVSITCKASQDVTTAVAWYQQKPGQSPKLLIYWASTRHTGVPDRFTGSGSGTDYSLTISNVQTEDLAFYYCQQHFTTPLTFGAGTKLELK | binds |
| F107-8D12 (antibody, V domains shown) VH: QVQLQQPGAELVKPGASVQLSCKASGYTFISFWINWVKQRPGQGLEWMGNIFPGSSSTNYNEKFKSKATLTVDKSSSTAYMQLSSLTSEDSAVYFCARDYYGGSPDYWGQGTTLTVSS VL: DIVMSQSPSSLAVSAGERVTMSCKSSQSLLNTRTRKNYLAWYQQKPGQSPKLLIYWASTRESGVPDRFTGSGSGTDFTLTISSVQAEDLAVYYCKQSYNLWTFGGGTKLEIK | binds |
| F107-7H5 (antibody, V domains shown) VH: QVQLQQPGAELVKPGASVKLSCKASGYTFTSYWINWVKQRPGQGLEWIGNIYPDSSSTNYNEKFKSKATLTVDKSSTTAYIQFSSLTSEDSAVYYCTRDTYGGSPDYWGQGTTLTVSS VL: DIVMSQSPSSLAVSAGEKVTMSCKSSQSLLNSRTRKIYLAWYQQKPGQSPKLLIYWASTRQSGVPDRFTGSGSGTDFTLTISSVQAEDLAVYYCKQSYNLWTFGGGTKLEIK | binds |

Now from value to binder:

| binding | Binder |
| --- | --- |
| binds | F111-5E9 (antibody, V domains shown) VH: QIQLVQSGPELKKPGETVKISCKASGYTFTKYGMNWVKQAPGKGLKWMGWINTYTGEPTYADDFKGRFAFSLETSASTAYLQINNLTTEDMVTYFCAKGGYYSNPIYPMDYWGQGTSVTVSS VL: DIQMTQTTSSLSASLGDRVTISCRASQDINNYLNWYQQKPDGTVKLLIYYISRLHSGVPSRFSGSGSGTDYSLTISNLELEDVATYFCQQGNTLPFTFGSGTKLEIK |
| binds | F111-3C8 (antibody, V domains shown) VH: QVQLQQPGAELGKPGTSVKLSCKASGYTFTSYWMHWVKRVPGQGLEWIGNINPNSTSADYNEKFKRKATLTVDKSSSTAYMQLSTLTSEDSAVYYCTRPLMGPYWYFDVWGTGTTVTVSS VL: QIVLTQSPAIMSASPGEKVTISCSASSSVSYMYWYQQKPGSSPKPWIYRTSNLASGVPARFSGSGSGTSYSLTISSMEAEDAATYYCQQYHNYPPTFGGGTKLEIK |
